Assay results: PubChem BioAssay AID445 (National Center for Advancing Translational Sciences (NCATS), 2006)
The list shows a part of the results. Further columns of the screen follow, without active or inactive calls. Most of these compounds were active or inconclusive in the main read-out, so they are no random draw. Potencies come from curve fits of mixed quality, noted in brackets.

Experiment: IkB Signaling
Conditions: ABC-DLBCL IkBa-CBG/CBR dual luciferase ratio (green luciferase fused to IkBa over red control in OCI-Ly3 lymphoma cells), 4 h
In short: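 Curves were fitted separately to fusion (green), unfused (red) and ratio luminescence, then classed by r2, magnitude and activity. Cells: OCI-Ly3, 4 h compound plus doxycycline at 37C; 10 uM MG-132 defined full response.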

[1] = measured here: control luc red channel unless noted

SMILES: COc1cc(NC(=O)CN2CCN(CC(=O)Nc3ccc(F)cc3)CC2)cc(OC)c1
- AC50 [1]: 31.6 µM [falling, single point]

SMILES: CCO/C(C)=C1\C(=O)N(CC)c2ccccc21
- AC50 [1]: 3.98 µM [rising, full curve, poor fit]

SMILES: Cc1ccc(-n2ncc3c(N4CCC(Cc5ccccc5)CC4)ncnc32)cc1
- AC50 [1]: 15.8 µM [falling, partial curve]

SMILES: O=C(c1ccc2c(c1)N(Cc1ccccc1F)C(=O)c1ccccc1S2=O)N1CCOCC1 (configuration not stated)
- AC50 [1]: 2.51 µM [rising, full curve]

SMILES: Cc1ccc2c(c1)cc1c(=O)n(CC(=O)N3CCCCC3)nc(C)n12
- AC50 [1]: 39.8 µM [falling, single point]

SMILES: CN1/C(=C/C(=O)c2nc(S(C)(=O)=O)ncc2Cl)C(C)(C)c2ccccc21
- AC50 [1]: 5.01 µM [falling, full curve]

SMILES: CCc1ccc(C(=O)c2cn(CC(=O)Nc3ccc(C)c(C)c3)c3ccccc3c2=O)cc1
- AC50 [1]: 7.94 µM [falling, partial curve]

SMILES: O=C(NCC1CCCO1)c1c[nH]c2ccc(S(=O)(=O)Nc3cccc(C(F)(F)F)c3)cc2c1=O (configuration not stated)
- AC50 [1]: 39.8 µM [falling, single point]

SMILES: CCC(Sc1nc2nccnc2c(=O)n1Cc1ccc(OC)cc1)C(=O)NC1CCCCC1 (configuration not stated)
- AC50 [1]: 39.8 µM [falling, single point]

SMILES: CC(C)(C)c1cc(CN2CCCC(O)C2)c(O)c(C(C)(C)C)c1 (configuration not stated)
- AC50 [1]: 25.1 µM [falling, partial curve]

SMILES: CCCc1cc(C(=O)N2CCN(c3ccccc3C)CC2)cs1
- AC50 [1]: 20 µM [falling, partial curve]

SMILES: CC(C)n1c(SCC(=O)Nc2ccc(F)cc2)nc2c(oc3ccccc32)c1=O
- AC50 [1]: 39.8 µM [falling, single point]

SMILES: Cc1cccc(NC(=O)c2cc(NC(=O)C3CCCCC3C(=O)O)ccc2N2CCCCC2)c1 (configuration not stated)
- AC50 [1]: 25.1 µM [falling, single point]

SMILES: CCOc1ccc(C2C(=O)N(C3CCCCC3)CC(=O)N2C2CCCC2)cc1OC (configuration not stated)
- AC50 [1]: 0.00794 µM [rising, full curve]

SMILES: COC(=O)c1[nH]c2ccc(C)cc2c1NC(=O)CN1CCc2cc(OC)c(OC)cc2C1
- AC50 [1]: 12.6 µM [falling, partial curve]

SMILES: COc1ccc(/C=C/C(=O)Nc2sc3c(c2C(N)=O)CCC(C)C3)cc1OC (configuration not stated)
- AC50 [1]: 39.8 µM [falling, single point]

SMILES: N#CCCCSc1nnc(CSc2nc3ccccc3s2)n1-c1ccccc1
- AC50 [1]: 25.1 µM [falling, partial curve]

SMILES: CCOC(=O)c1c(NC(=O)c2cc(C)on2)sc(C)c1C
- AC50 [1]: 12.6 µM [rising, partial curve, poor fit]

SMILES: Cc1ccc(-n2ncc3c(N4CCN(C)CC4)ncnc32)cc1Cl
- AC50 [1]: 2.51 µM [falling, full curve]

SMILES: CNC(=O)c1ccc(Nc2nnc(-c3ccc(C)c(S(=O)(=O)N4CCCCC4)c3)c3ccccc23)cc1
- AC50 [1]: 20 µM [falling, partial curve]

SMILES: CCc1cccc(NC(=O)CSc2ncccc2C(=O)Oc2ccccc2Cl)c1
- AC50 [1]: 12.6 µM [falling, partial curve]

SMILES: CNC(=O)c1c[nH]c2ccc(S(=O)(=O)Nc3cccc(Cl)c3C)cc2c1=O
- AC50 (measured here: IkB-luc green channel): 7.94 µM [rising, partial curve]
- AC50 (measured here: control luc red channel): 3.98 µM [falling, full curve, poor fit]

SMILES: Cc1cc(C)cc(OCc2ccc(C(=O)Nc3ccccc3F)o2)c1
- AC50 [1]: 3.98 µM [falling, full curve, poor fit]

SMILES: NCCCCCc1nnc(SCC(=O)c2ccc(Cl)cc2)o1
- AC50 [1]: 3.16 µM [falling, full curve]

SMILES: COc1ccc(CNC(=O)CCC(=O)N2CC3CCCN3c3ccccc32)c(OC)c1 (configuration not stated)
- AC50 [1]: 0.398 µM [falling, partial curve]

SMILES: Cc1ccc(C2=CC(c3c(F)cccc3Cl)n3ncnc3N2)cc1C (configuration not stated)
- AC50 [1]: 15.8 µM [falling, single point]

SMILES: CC(=O)Nc1cc(-c2nc3ccccc3s2)ccc1C
- AC50 [1]: 1.26 µM [rising, partial curve, poor fit]

SMILES: Cc1cccc(N(CC(=O)NCc2ccc3c(c2)OCO3)C(=O)CCC(=O)Nc2ccccn2)c1
- AC50 [1]: 31.6 µM [falling, partial curve]

SMILES: CCn1c(-c2ccc(S(=O)(=O)N3CCOCC3)cc2)csc1=Nc1ccc(C)c(Cl)c1
- AC50 [1]: 7.94 µM [falling, partial curve]

SMILES: COc1ccccc1N(CC(=O)NC1CCCCC1)C(=O)CCC(=O)Nc1ccccn1
- AC50 [1]: 10 µM [falling, partial curve]

SMILES: CCOC(=O)c1ccc(CN(Cc2ccccc2C)S(=O)(=O)c2ccc(C(C)(C)C)cc2)cc1
- AC50 [1]: 3.98 µM [falling, partial curve]
